Source: PubChem BioAssay AID588497 (NMMLSC, 2011)
In all, about 360,000 compounds went through this assay and about 780 (0.22%) were called active. This list was built around the results that the source calls inconclusive (neither active nor inactive); the mix of calls is not that of the screen. Cut-off read from the data, not from the text of the source: active = inhibition above about 35% (passing the limit was not always enough); inconclusive = no clear call, values can overlap the other calls.

System: Botulinum neurotoxin type F light chain protease (Clostridium botulinum)
Experiment: BoNT/F light chain protease inhibitors, primary screen, biochemical, flow cytometry, MLPCN library (AID 588497); note: plate controls were buffer without enzyme for full effect and enzyme alone for no effect
Settings: Multiplex microsphere protease cleavage assay, at 10 µM, hits give high values

Compound | inhibition
CC(C)(C)c1ccc(Oc2coc3cc(OCC(=O)O)ccc3c2=O)cc1 | inconclusive: 5%
NCCc1nnc(SCc2ccccc2Cl)o1 | active: 44.8%
Cc1ccc(OCc2ccc(C(=O)Nc3c(C)nn(Cc4c(F)c(F)c(F)c(F)c4F)c3C)o2)c([N+](=O)[O-])c1 | inactive: -2%
Cc1ccc(C(=O)Nc2ccc(NC(=O)c3ccccc3Cl)c(C)c2)cc1 | inactive: 6.4%
COc1ccc(S(=O)(=O)NNC(=O)c2csc(-n3nc(C)cc3C(F)(F)F)n2)cc1 | inconclusive: 9.1%
Cc1ccc[n+](CC(=O)Nc2ccc(N(C)C)cc2)c1 | inconclusive: -43.8%
CCCCCCCCCCOC(=O)C[N+](C)(C)CC1CCCCC1O (stereo unspecified) | inconclusive: 4.2%
O=C1CCCN1C(=O)CSc1ncnc2sccc12 | inconclusive: -0.6%
CCOc1ccc(OCCCC(=O)NC2=NCCS2)cc1 | inconclusive: -26.5%
COc1ccc(/C=C2\SC(=S)N(CCC(=O)Nc3cccc(C(=O)O)c3)C2=O)cc1OC | inconclusive: -15.7%
Cn1ccsc1=NC(=O)c1ccc(S(C)(=O)=O)c([N+](=O)[O-])c1 | inactive: -3%
COc1ccc(NC(=O)CCc2nnc3ccc(NCc4ccco4)nn23)cc1OC | inactive: 3%
Nc1c(N2CCOCC2)cc(Cl)c2nonc12 | inactive: -3.2%
OC1=C(O)c2nc3cc(C(F)(F)F)ccc3nc21 | inconclusive: 43.8%
O=C(Cc1ccccc1)NCCc1cnc[nH]1 | inconclusive: -19%
COc1cccc(C(=O)OCC(=O)c2c[nH]c3ccccc23)c1O | inactive: -5.5%
O=C(COc1coc(CN2CCc3ccccc3C2)cc1=O)Nc1ccc(F)cc1F | inactive: -5.3%
COc1cnc(-c2ccccn2)nc1Oc1cccc(C(F)(F)F)c1 | inconclusive: -14.4%
CN(Cc1ccccc1)c1cc2c(c3c1ccn3C)C1CCC2O1 (stereo unspecified) | inactive: -3.5%
CC(=O)/C(=C\N(C)C)Sc1ccc(C)cc1 | active: 37.7%
C=CCN(CC=C)c1ccc(N2C(=O)C3CCCCC3C2=O)cc1[N+](=O)[O-] (stereo unspecified) | inactive: -1.7%
C=CCOc1cccc(CNCc2ccncc2)c1 | inconclusive: 22.4%
CCCCC(=O)N(C)c1c(CC)nc2c(OCc3cc(Cl)cc(Cl)c3)cccn12 | inactive: -1.3%

Compound | inhibition
O=C(NNS(=O)(=O)c1ccc(Cl)cc1Cl)c1cc2ncc(C(F)(F)F)cc2s1 | inconclusive: -50.6%
Nc1nnnn1/N=C/c1ccccc1O | inconclusive: -3.4%
C=C(C)Cn1c2ccc(NC(=O)NCc3ccc(F)cc3)cc2c(=O)n1C | inactive: -3%
Cc1[nH]n(C(N)=S)c(=O)c1N=Nc1ccc(Cl)cc1Cl | inconclusive: 16.7%
CC(=O)Nc1ccc(NCc2ccc(-c3ccccc3)cc2)cc1 | inconclusive: -6.7%
CCc1ccccc1NC(=O)C1C2C=CC(O2)C1C(=O)O (stereo unspecified) | inconclusive: 15.6%
CCOC(=O)CNc1ccc(OC(F)(F)F)cc1 | inconclusive: 38%
Cc1cc(C)cc(NC(=O)N2CCN(Cc3ccc4c(c3)OCO4)CC2)c1 | inconclusive: -38.3%
Cc1ccc(C2(CC(=O)O)CCOC(C)(C)C2)cc1 (stereo unspecified) | inactive: 1.7%
CCN(CC)CCn1c(=N)n(CC(=O)c2ccc(Br)s2)c2ccccc21 | inconclusive: -91.6%
O=C(NCC1CCCCC1)c1ccccc1[N+](=O)[O-] | inconclusive: 17.9%
Cc1c(NS(=O)(=O)c2cc([N+](=O)[O-])ccc2Cl)c(=O)n(-c2ccccc2)n1C | inconclusive: -105%
C=CCOc1cccn2c(N(C)C(=O)c3ccccc3F)c(CC)nc12 | inactive: -1%
CC(=O)N1CCOCCOCCOCC1 | inconclusive: 109%
Cn1c(CNC(=O)C2CCCCC2)cc2cc(Cl)ccc21 | inconclusive: -1.3%
Cn1c(-c2ccc3ccccc3n2)nc2cnccc21 | inconclusive: -38.3%
CCc1cccc(NS(=O)(=O)c2cccc3cccnc23)c1 | inconclusive: -4.7%
Cn1cnc([N+](=O)[O-])c1Sc1ccc(C(C)(C)C)cc1 | inconclusive: 17.9%
COc1ccc(-c2c(C(F)(F)F)[nH]n3c(=O)cc(-c4ccccc4)nc23)cc1 | inconclusive: -4.3%
Cc1ccc(S(=O)(=O)Nc2cccc(C(=O)N3CCOCC3)c2)c(C)c1NS(C)(=O)=O | inactive: -6.4%
CCCOc1ccccc1C(=O)N(Cc1cccc(Br)c1)C1CCS(=O)(=O)C1 (stereo unspecified) | inactive: -0.1%
COc1ccccc1OCCNC(=O)CN1C(=O)NC2(CCCCC2)C1=O | inactive: -3.5%
Cc1ccc(S(=O)(=O)N(C)c2ccccc2C(=O)Nc2ccc(F)cc2F)cc1 | inconclusive: 47.8%

Quoted at random: three records from the list, in no set order.
Compound | inhibition
Nc1nnnn1/N=C/c1ccccc1O | inconclusive: -3.4%
CCOC(=O)CNc1ccc(OC(F)(F)F)cc1 | inconclusive: 38%
Cc1ccc(S(=O)(=O)N(C)c2ccccc2C(=O)Nc2ccc(F)cc2F)cc1 | inconclusive: 47.8%
